Values of other authors as cited in US20170119783A1, “Method for Treating Cognitive Impairment Associated With Neurodegenerative Disorders” (priority 2014, published 2017).
At least one structure is not confirmed: it was looked up by name or label, or the drawing left a doubt.

Tests used:
Plasmodium falciparum = details: relative to artemisinin
nucleic acid synthesis = details: relative to artemisinin
[1] = system: Ehrlich ascots tumor cells

Row | Compound | antimalarial potency, times that of artemisinin (Plasmodium falciparum) [times] | ability to inhibit nucleic acid synthesis, times the activity of artemisinin (nucleic acid synthesis) [times] | efficacy against Ehrlich ascots tumor cells (in words) [1] | antimalarial potency higher than that of artemisinin (Plasmodium falciparum) [%]
1 | CO[C@H]1O[C@@H]2O[C@@]3(C)CC[C@H]4[C@H](C)CC[C@@H]([C@H]1C)[C@@]24OO3 [Artemether] | 6 | 100 | efficacy against Ehrlich ascots tumor cells | 
2 | C[C@H]1[C@@H](O)O[C@@H]2O[C@@]3(C)CC[C@H]4[C@H](C)CC[C@@H]1[C@@]24OO3 [Dihydroartemisinin] |  | 100 |  | 60
